From doi:10.1101/364463 (bioRxiv, 2019)

Protein sequences, listed by entry. Tags and fused reporters are not part of them.
UniProt Q24117: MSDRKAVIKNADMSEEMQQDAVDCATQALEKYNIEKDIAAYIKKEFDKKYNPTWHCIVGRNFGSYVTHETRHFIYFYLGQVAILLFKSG

Target: FLAG-dDYNLL1 (expressed in S2 cells) (Drosophila) (UniProt Q24117)
Experiment: affinity purification with mass spectrometry

B1: PI31 of S2 cells (endogenous) (protein, UniProt Q9V637 1-270)
chain: MESGSTAKTGDFFYGWDLLYKTVKADVSKKSDLLIALVHFLLTKHYNFRCVGVGDDKTLPEEEGSELLPDSWNDDDTKYSLRYVHDKMLYLLLGHITEGSLLINLLDINTKKVSNICVEPETLVPEVKGGITTIMPSASEIVERYRRELLDPVFTGNSREVTTQTTNSPRPIGSDPDPLRIGEPRRGGSFIPSAFEPRPFGFPDVGRGDLDPLGRGGHGNLFSFPSRPNMGPGPVPRFDPFNPLNPNRPGQGGINPDHMRPPDWNPDYYM
Question: How did the binding turn out when B1 was run?
Answer: binds

These are yes or no findings as the source states them, for the method shown. In cells and extracts the contact can be indirect. Here binding means that the protein was enriched with, or labelled near, the bait; the list need not be complete.
